{"source": "PubChem BioAssay AID1224828 (NIAID, 2016)", "assay": "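Find genes required for NF-kappaB p65 moving into the nucleus after LPS in mouse macrophages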 (primary screen)", "cells": "mouse RAW264.7 G9 macrophage reporter cells (GFP-p65, Tnf promoter-mCherry)", "knock-down reagent": "siRNA pool against mouse genes, 100 nM", "time to read-out": "2 days siRNA transfection, then 40 min LPS before fixation", "treatment": "LPS (Salmonella minnesota R595) at 10 ng/ml", "measurement": "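Microscopy ratio of nuclear to perinuclear-ring GFP-p65 signal, scaled to the plate median; gene score is the average of two replicate robust z-scores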", "reading the numbers": "p65 translocation robust z-score: higher = more nuclear NF-kappaB p65 after LPS than the plate median; nuclear/cytoplasmic p65 ratio: higher = more nuclear NF-kappaB p65", "call rule": "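Active if robust z is above 3.3 (negative regulators) or below -1.56, the Tlr4 control median (positive regulators); activity score 50 or more; control wells not called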", "calls": "active = hit (p65 shift raised or lowered); inactive = no clear change", "note": "The whole screen tested about 17,000 reagents; shown is an unselected part. 762 of all reagents (4.5%) were called active. 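Active calls include both raised and lowered p65 entry, mostly lowered; wells with fewer than 50 cells lack a z-score.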 The raw values are shown without normalisation. Unmarked entries are inactive."}
{"gene": "Hp", "p65 translocation robust z-score": -0.07, "nuclear/cytoplasmic p65 ratio, rep 1": 1.37, "nuclear/cytoplasmic p65 ratio, rep 2": 1.42, "low cell count flag": "enough cells to score"}
{"gene": "Taar9", "p65 translocation robust z-score": 0.74, "nuclear/cytoplasmic p65 ratio, rep 1": 1.59, "nuclear/cytoplasmic p65 ratio, rep 2": 1.72, "low cell count flag": "enough cells to score"}
{"gene": "Larp6", "p65 translocation robust z-score": 0.23, "nuclear/cytoplasmic p65 ratio, rep 1": 1.32, "nuclear/cytoplasmic p65 ratio, rep 2": 1.57, "low cell count flag": "enough cells to score"}
{"gene": "Pnn", "p65 translocation robust z-score": -0.88, "nuclear/cytoplasmic p65 ratio, rep 1": 1.35, "nuclear/cytoplasmic p65 ratio, rep 2": 1.32, "low cell count flag": "enough cells to score"}
{"gene": "Zfp687", "nuclear/cytoplasmic p65 ratio, rep 1": 1.22, "nuclear/cytoplasmic p65 ratio, rep 2": 1.5, "low cell count flag": "fewer than 50 cells per well; well left out of scoring"}
{"gene": "Aadacl2fm1", "p65 translocation robust z-score": 0.12, "nuclear/cytoplasmic p65 ratio, rep 1": 1.45, "nuclear/cytoplasmic p65 ratio, rep 2": 1.53, "low cell count flag": "enough cells to score"}
{"gene": "Lcp2", "p65 translocation robust z-score": 0.11, "nuclear/cytoplasmic p65 ratio, rep 1": 1.91, "nuclear/cytoplasmic p65 ratio, rep 2": 1.39, "low cell count flag": "enough cells to score"}
{"gene": "Nrn1l", "p65 translocation robust z-score": 0.94, "nuclear/cytoplasmic p65 ratio, rep 1": 1.8, "nuclear/cytoplasmic p65 ratio, rep 2": 1.53, "low cell count flag": "enough cells to score"}
{"gene": "Gzme", "p65 translocation robust z-score": -0.79, "nuclear/cytoplasmic p65 ratio, rep 1": 1.45, "nuclear/cytoplasmic p65 ratio, rep 2": 1.5, "low cell count flag": "enough cells to score"}
{"gene": "Rps29", "p65 translocation robust z-score": -0.69, "nuclear/cytoplasmic p65 ratio, rep 1": 1.39, "nuclear/cytoplasmic p65 ratio, rep 2": 1.52, "low cell count flag": "enough cells to score"}
{"gene": "Sebox", "p65 translocation robust z-score": 1.18, "nuclear/cytoplasmic p65 ratio, rep 1": 1.96, "nuclear/cytoplasmic p65 ratio, rep 2": 1.64, "low cell count flag": "enough cells to score"}
{"gene": "Oas1f", "p65 translocation robust z-score": -0.31, "nuclear/cytoplasmic p65 ratio, rep 1": 1.67, "nuclear/cytoplasmic p65 ratio, rep 2": 1.48, "low cell count flag": "enough cells to score"}
{"gene": "Vmn1r177", "p65 translocation robust z-score": 0.34, "nuclear/cytoplasmic p65 ratio, rep 1": 1.36, "nuclear/cytoplasmic p65 ratio, rep 2": 1.33, "low cell count flag": "enough cells to score"}
{"gene": "Ecm1", "p65 translocation robust z-score": 1.45, "nuclear/cytoplasmic p65 ratio, rep 1": 1.85, "nuclear/cytoplasmic p65 ratio, rep 2": 1.38, "low cell count flag": "enough cells to score"}

Reformatted: 2 of the entries above
Larp6 → p65 translocation robust z-score: 0.23; nuclear/cytoplasmic p65 ratio, rep 1: 1.32; nuclear/cytoplasmic p65 ratio, rep 2: 1.57; low cell count flag: enough cells to score
Pnn → p65 translocation robust z-score: -0.88; nuclear/cytoplasmic p65 ratio, rep 1: 1.35; nuclear/cytoplasmic p65 ratio, rep 2: 1.32; low cell count flag: enough cells to score
